In PMC11722552:
No constants are given. Whether binding was seen depends on the method and setting. Binding seen in cells or lysates may run through a third protein. Some binding calls cover weakened binding; strength is not graded here. For some of these results: Tags and fused reporters may be left off the sequences shown.

Chains of the proteins cited; added tags and fusions are not shown.
UniProt Q9R0A0: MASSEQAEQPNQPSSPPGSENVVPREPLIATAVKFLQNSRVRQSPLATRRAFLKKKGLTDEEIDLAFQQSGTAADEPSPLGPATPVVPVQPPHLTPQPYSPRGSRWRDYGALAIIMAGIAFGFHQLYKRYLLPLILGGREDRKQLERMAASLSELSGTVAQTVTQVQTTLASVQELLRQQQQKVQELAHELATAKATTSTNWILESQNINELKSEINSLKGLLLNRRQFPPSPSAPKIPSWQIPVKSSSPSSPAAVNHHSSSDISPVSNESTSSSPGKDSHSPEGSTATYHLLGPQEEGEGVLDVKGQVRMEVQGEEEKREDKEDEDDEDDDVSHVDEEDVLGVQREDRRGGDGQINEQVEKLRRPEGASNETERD
UniProt O75381: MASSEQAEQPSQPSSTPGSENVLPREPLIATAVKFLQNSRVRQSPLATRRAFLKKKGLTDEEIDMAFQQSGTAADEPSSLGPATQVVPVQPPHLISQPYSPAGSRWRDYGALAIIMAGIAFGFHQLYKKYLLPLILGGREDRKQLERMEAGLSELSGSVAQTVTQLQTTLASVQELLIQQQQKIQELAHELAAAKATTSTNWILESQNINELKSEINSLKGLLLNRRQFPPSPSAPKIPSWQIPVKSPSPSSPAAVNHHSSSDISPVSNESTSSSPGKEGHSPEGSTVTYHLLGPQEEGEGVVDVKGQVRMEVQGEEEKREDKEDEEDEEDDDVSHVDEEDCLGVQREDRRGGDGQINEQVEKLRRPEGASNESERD

Assays:
[1] = molecular target: Peroxin 14 (PEX14) (mouse (endogenous in embryonic motor neurons)) (UniProt Q9R0A0); test: proximity ligation; Duolink in situ PLA on fixed, permeabilised (0.4% Triton X-100) cultured mouse embryonic motor neurons, endogenous proteins; wild-type compared with Gdap1-/-
[2] = molecular target: Peroxin 14 (PEX14) (human (endogenous in fibroblasts)) (UniProt O75381); test: proximity ligation; Duolink in situ PLA on fixed, methanol-permeabilised human fibroblasts, endogenous proteins; control compared with patients' fibroblasts, also after GDAP1-Myc transfection or GSH-MEE treatment
[3] = molecular target: T1, Mitofusin 2 (MFN2) (human (endogenous in fibroblasts)) (UniProt O95140); test: as above
T1 sequence: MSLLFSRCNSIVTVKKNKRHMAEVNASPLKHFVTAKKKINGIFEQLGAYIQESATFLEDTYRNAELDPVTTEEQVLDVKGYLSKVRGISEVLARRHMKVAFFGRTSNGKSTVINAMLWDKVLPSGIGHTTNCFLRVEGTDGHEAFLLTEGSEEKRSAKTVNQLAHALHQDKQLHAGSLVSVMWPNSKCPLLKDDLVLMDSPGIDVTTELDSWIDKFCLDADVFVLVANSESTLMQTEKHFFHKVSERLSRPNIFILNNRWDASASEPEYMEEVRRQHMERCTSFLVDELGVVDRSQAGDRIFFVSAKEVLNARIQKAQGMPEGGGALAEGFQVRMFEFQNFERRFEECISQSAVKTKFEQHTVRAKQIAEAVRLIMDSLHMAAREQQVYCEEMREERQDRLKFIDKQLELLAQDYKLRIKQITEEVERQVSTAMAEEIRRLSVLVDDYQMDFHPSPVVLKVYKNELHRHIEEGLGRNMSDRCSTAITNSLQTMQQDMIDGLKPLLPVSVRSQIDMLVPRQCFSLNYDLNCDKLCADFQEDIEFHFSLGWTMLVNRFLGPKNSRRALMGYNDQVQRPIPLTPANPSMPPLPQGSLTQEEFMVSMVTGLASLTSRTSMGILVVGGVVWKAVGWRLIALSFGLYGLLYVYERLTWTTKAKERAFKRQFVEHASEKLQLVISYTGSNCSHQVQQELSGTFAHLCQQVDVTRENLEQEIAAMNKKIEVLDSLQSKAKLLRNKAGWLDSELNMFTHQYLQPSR

[4] = molecular target: Peroxin 14 (PEX14) (human (endogenous in fibroblasts)) (UniProt O75381); test: co-IP; 1 mg lysate of control fibroblasts (1% Triton X-100 lysis buffer) with the specific antibody 6-8 h at 4°C, Protein G Sepharose overnight, western blot; endogenous proteins

B1: Ganglioside-induced differentiation-associated protein 1 (GDAP1) (protein, UniProt O88741 1-358)
chain: MARRQDEARAGVPLRVEGPPDKEVHLILYHWTHSFSSQKVRLVIAEKALKCEEHDVSLPLSEHNEPWFMRLNSAGEVPVLVHGENIICEATQIIDYLEQTFLDERTPRLMPDEGSMYYPRVQHYRELLDSLPMDAYTHGCILHPELTVDSMIPAYATTRIRSQIGNTESELKKLAEENPDLQEAYIAKQKRLKSKLLDHDNVKYLKKILDELEKVLDQVETELQRRNEETPEEGNQPWLCGESFTLADVSLAVTLHRLKFLGFARRNWGHGKRPNLETYYERVLKRKTFNKVLGHVNNILISAVLPTAFRVAKKRAPKVLGSTLVVGLLVGMGYFAFMLFRRRLGSMILALRPRPNYF
- binding [1]: binds

B2: Ganglioside-induced differentiation-associated protein 1 (GDAP1) (protein, UniProt Q8TB36 1-358)
chain: MAERQEEQRGSPPLRAEGKADAEVKLILYHWTHSFSSQKVRLVIAEKALKCEEHDVSLPLSEHNEPWFMRLNSTGEVPVLIHGENIICEATQIIDYLEQTFLDERTPRLMPDKESMYYPRVQHYRELLDSLPMDAYTHGCILHPELTVDSMIPAYATTRIRSQIGNTESELKKLAEENPDLQEAYIAKQKRLKSKLLDHDNVKYLKKILDELEKVLDQVETELQRRNEETPEEGQQPWLCGESFTLADVSLAVTLHRLKFLGFARRNWGNGKRPNLETYYERVLKRKTFNKVLGHVNNILISAVLPTAFRVAKKRAPKVLGTTLVVGLLAGVGYFAFMLFRKRLGSMILAFRPRPNYF
- binding [2]: binds
- binding [3]: binds
- binding [4]: binds
